Experimental data reported in PMC10679098.
No constants are given. Whether binding was seen depends on the method and setting. In cells and extracts the contact can be indirect. Some entries that bind do so weakly or less than the wild type.

Biological target: Epidermal growth factor receptor (EGFR), endogenous (human (endogenous in 786-O and Caki-1)) (UniProt P00533)
Test: co-IP; endogenous co-IP from 786-O and Caki-1 cells; about 200 ug total cellular protein incubated with the target antibody overnight at 4 °C, protein A-agarose beads, rabbit control IgG as negative control, immunoblot

B1: Procollagen-lysine, 2-oxoglutarate 5-dioxygenase 2 (PLOD2), endogenous (enzyme, UniProt O00469 26-737)
chain: ADSEKPSSIPTDKLLVITVATKESDGFHRFMQSAKYFNYTVKVLGQGEEWRGGDGINSIGGGQKVRLMKEVMEHYADQDDLVVMFTECFDVIFAGGPEEVLKKFQKANHKVVFAADGILWPDKRLADKYPVVHIGKRYLNSGGFIGYAPYVNRIVQQWNLQDNDDDQLFYTKVYIDPLKREAINITLDHKCKIFQTLNGAVDEVVLKFENGKARAKNTFYETLPVAINGNGPTKILLNYFGNYVPNSWTQDNGCTLCEFDTVDLSAVDVHPNVSIGVFIEQPTPFLPRFLDILLTLDYPKEALKLFIHNKEVYHEKDIKVFFDKAKHEIKTIKIVGPEENLSQAEARNMGMDFCRQDEKCDYYFSVDADVVLTNPRTLKILIEQNRKIIAPLVTRHGKLWSNFWGALSPDGYYARSEDYVDIVQGNRVGVWNVPYMANVYLIKGKTLRSEMNERNYFVRDKLDPDMALCRNAREMGVFMYISNRHEFGRLLSTANYNTSHYNNDLWQIFENPVDWKEKYINRDYSKIFTENIVEQPCPDVFWFPIFSEKACDELVEEMEHYGKWSGGKHHDSRISGGYENVPTDDIHMKQVDLENVWLHFIREFIAPVTLKVFAGYYTKGFALLNFVVKYSPERQRSLRPHHDASTFTINIALNNVGEDFQGGGCKFLRYNCSIESPRKGWSFMHPGRLTHLHEGLPVKNGTRYIAVSFIDP
- binding: binds
